In one assay the target is SERPINA3. Briefly: on-cell Kd, antibody titration on cells expressing SERPINA3, flow cytometry. (Flow cytometry measures light scatter and fluorescence of single cells or particles in a stream.)
The target in a further assay is SLC6A9. Briefly: on-cell Kd, antibody titration on cells expressing SLC6A9, flow cytometry.
Another assay deals with PLPP3. Briefly: on-cell Kd, antibody titration on cells expressing PLPP3, flow cytometry.

No constants are given. Whether binding was seen depends on the method and setting.

B1: anti-CCR8-2 (antibody, V domains shown)
VH: EVQLLESGGGLVQPGGSLRLSCAAGGFTFSAYTMNWVRQAPGKGLEWVSAISASGGRTYYADSVKGRFTISRDNSKNTLYLQMNSLRAEDTAVYYCARRFARGWFDPWGQGTLVTVSS
VL: QSVLTQPPSVSAAPGQKVTISCSGSSSNIGNNYVSWYQQLPGTAPKLLIYDNNKRPSGIPDRFSGSKSGTSATLGITGLQTGDEADYYCGTWDSSLSAWVFGGGTKLT
notes: Cloned into mammalian expression vectors; human IgG; also called heavy chain H23727
Consider B1, for which the binding result in the assay with SERPINA3, with SLC6A9 and with PLPP3 was “no binding (tested: 100 nM (top of the affinity axis))” each time.

B2: anti-CCR8-1 (antibody, human IgG1, V domains shown)
VH: QVQLVQSGAEVKKPGASVKVSCKASGYTFTSYYMHWVRQAPGQGLEWMGIINPSGGSTSYAQKFQGRVTMTRDTSTSTVYMELSSLRSEDTAVYYCARAVRNRFRFDYWGQGTLVTVSS
VL: QSALTQPASVSGSPGQSITISCTGTSSDVGSYNLVSWYQQHPGKAPKLMIYEVSKRPSGVSNRFSGSKSGNTASLTISGLQAEDEADYYCSSYAGSSTFVVFGGGTKLTVL
Consider B2, for which the binding entry with SERPINA3, with SLC6A9 and with PLPP3 was “no binding (tested: 100 nM (top of the affinity axis))” each time.

Values taken from patent US20210238292A1 (VACCINEX, published 2021).
